# Data from US20230413823A1, “HYPERLOADED YEAST CELL WALL PARTICLE AND USES THEREOF” (priority 2022, published 2023).
# Legend:
# Test in all cases: Antimicrobial microplate assay (MIC 75%)
# Type in all cases: cell-based
# Escherichia coli Top10 = conditions: TOP10, 16 h, read-out: Minimum inhibitory concentration (MIC 75%) E. coli
# [1] = test system: Staphylococcus aureus ATCC 19636; conditions: ATCC19636, 16 h, read-out: Minimum inhibitory concentration (MIC 75%) S. aureus
# Candida albicans SC5134 = conditions: 16 h, 37° C., absorbance 650 nm, read-out: Minimum inhibitory concentration (MIC 75%) C. albicans
# Description: The antimicrobial activity of YP-GET was evaluated using a modified published microplate assay procedure (Sultanbawa, Y.; Cusack, A.; Currie, M.; Davis, C. An Innovative Microplate Assay to Facilitate the Detection of Antimicrobial 538Activity in Plant Extracts. J. Rapid Meth. Aut. Mic. 2009, 17 (4), 519-534. haps://doi.org/10.111/j.1745-4581.2009.00187.x). Samples of YP-GET were suspended in 100 μL of growth medium (LB 395was used in antibacterial assays and YPD in antifungal assays) and added to the first row 396 (Row A) of a 96-well plate (all wells in the 96-well plate contain additional 100 μL medium). Serial dilutions (1:1) were performed by transferring 100 μL from Row A to Row B, etc., and finally removing 100 μL from Row H. Diluted Escherichia coli Top10 (Invitrogen, Carlsbad CA), Staphylococcus aureus ATCC 19636 or Candida albicans SC5134 cells (100 μL, […]) were added to all wells of the plate. Initial (t=0) and final (t=16 h, 37° C.) absorbance readings were taken at 650 nm.
MIC (Escherichia coli Top10) [µg/mL],MIC [1] [µg/mL],SMILES,MIC (Candida albicans SC5134) [µg/mL]
8,< 0.25,CC1(C)S[C@@H]2[C@H](NC(=O)[C@H](N)c3ccccc3)C(=O)N2[C@H]1C(=O)O [Ampicillin],–
–,–,OC(Cn1cncn1)(Cn1cncn1)c1ccc(F)cc1F [Fluconazole],< 2000
